How the values were obtained:
[1] = F-detection by ion chromatography, release of fluoride compounds during preparation of 1-MCP; settings: 0.010 mol precursor reacted with tetrabutylammonium fluoride in DMSO, 25° C., nitrogen purge, discharged gas passed through 50 ml distilled water over 30 minutes; for F^− adsorption tube 1 (F^− concentration trapped): first tube; for F^− adsorption tube 2 (F^− concentration trapped): second tube
[2] = Evaluation of fluoride compound release level by 1H-NMR of trapped liquid during preparation of 1-MCP; settings: precursor + tetrabutylammonium fluoride hydrate in DMSO, 25° C., 2 hours, trap at −78° C., CDCl3

Compound	F^− adsorption tube 1 (F^− concentration trapped) [1] [ppm]	F^− adsorption tube 2 (F^− concentration trapped) [1] [ppm]	Volatile fluorosilane/siloxane byproducts in trapped liquid (1H-NMR peaks at δ=−0.3 to +0.5) [2]
CC1(OS(C)(=O)=O)CC1[Si](C)(C)C (stereo not drawn) [Comparative Example 1, 1-methyl-1-(methanesulfonyloxy)-2-(trimethylsilyl)cyclopropane, reference compound]	132	63	obtained as byproducts
CC1(OS(C)(=O)=O)CC1[Si](C)(C)c1ccccc1 (stereo not drawn) [Example 6, 1-methyl-1-(methanesulfonyloxy)-2-(dimethylphenylsilyl)cyclopropane]	0.09	0.05	the corresponding byproducts were not observed
CCCC[Si](C)(C)C1CC1(C)OS(C)(=O)=O (stereo not drawn) [Example 3, 1-methyl-1-(methanesulfonyloxy)-2-(dimethylbutylsilyl)cyclopropane]	0.12	0.06	the corresponding byproducts were not observed
